These are yes or no findings as the source states them, for the method shown. In cells and extracts the contact can be indirect. For part of these data: A result given as binding can be weak or reduced; the word gives no strength.
How the values were obtained:
[1] = molecular target: T1, Mod(mdg4)_T-mCherry (D. melanogaster) (UniProt Q86B87); assay: co-IP; transient co-expression of three or four proteins (SNM, UNO or a UNO fragment, MNM or a Mod(mdg4) variant, TEF) in Drosophila S2R+ cells; GFP-Trap, RFP-Trap or MYC-Trap agarose beads, 1 hour at 4°C; lysis buffer 20 mM Tris-HCl pH 7.5, 300 mM NaCl, 0.1% Nonidet P-40 Substitute, Benzonase; immunoblotting
T1 sequence: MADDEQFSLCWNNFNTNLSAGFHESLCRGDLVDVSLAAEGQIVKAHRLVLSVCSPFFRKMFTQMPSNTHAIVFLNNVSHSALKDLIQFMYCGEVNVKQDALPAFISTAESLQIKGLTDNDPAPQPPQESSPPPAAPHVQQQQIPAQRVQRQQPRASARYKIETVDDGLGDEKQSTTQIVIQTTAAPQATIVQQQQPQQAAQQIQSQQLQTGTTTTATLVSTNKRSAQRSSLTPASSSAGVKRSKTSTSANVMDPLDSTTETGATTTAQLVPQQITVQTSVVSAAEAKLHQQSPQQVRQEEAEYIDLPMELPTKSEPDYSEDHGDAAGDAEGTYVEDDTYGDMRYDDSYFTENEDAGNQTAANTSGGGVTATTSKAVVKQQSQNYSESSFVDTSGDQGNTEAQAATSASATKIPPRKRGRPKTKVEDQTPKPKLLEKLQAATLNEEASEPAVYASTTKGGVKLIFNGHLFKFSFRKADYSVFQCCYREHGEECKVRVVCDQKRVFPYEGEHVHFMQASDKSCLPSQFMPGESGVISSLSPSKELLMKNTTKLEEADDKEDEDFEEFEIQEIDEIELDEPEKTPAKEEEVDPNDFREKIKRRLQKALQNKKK

[2] = molecular target: T1, Mod(mdg4)_T-mCherry (D. melanogaster); assay: co-IP; transient co-expression of two proteins in Drosophila S2R+ cells; GFP-Trap, RFP-Trap or MYC-Trap agarose beads, 1 hour at 4°C; lysis buffer 20 mM Tris-HCl pH 7.5, 300 mM NaCl, 0.1% Nonidet P-40 Substitute, Benzonase; immunoblotting

Row | binding [1] | binding [2] | Substance
1 | no binding | – | UNO-myc (D. melanogaster)
2 | no binding | – | SNM-EGFP (D. melanogaster)
3 | – | binds | MNM-EGFP (D. melanogaster)

Reference: publication PMC9767379, “Homologous chromosomes are stably conjoined for Drosophila male meiosis I by SUM, a multimerized protein assembly with modules for DNA-binding and for separase-mediated dissociation co-opted from cohesin” (PLOS Genetics, 2022)
